Laboratory results from publication doi:10.1101/2024.11.20.624462.
These are yes or no findings as the source states them, for the method shown. Binding seen in cells or lysates may run through a third protein. Some binding calls cover weakened binding; strength is not graded here.

Chains of the proteins cited; added tags and fusions are not shown. Lines headed by an entry give the natural chain unless they say otherwise; changes in a name come on top.
UniProt Q01094, whole entry: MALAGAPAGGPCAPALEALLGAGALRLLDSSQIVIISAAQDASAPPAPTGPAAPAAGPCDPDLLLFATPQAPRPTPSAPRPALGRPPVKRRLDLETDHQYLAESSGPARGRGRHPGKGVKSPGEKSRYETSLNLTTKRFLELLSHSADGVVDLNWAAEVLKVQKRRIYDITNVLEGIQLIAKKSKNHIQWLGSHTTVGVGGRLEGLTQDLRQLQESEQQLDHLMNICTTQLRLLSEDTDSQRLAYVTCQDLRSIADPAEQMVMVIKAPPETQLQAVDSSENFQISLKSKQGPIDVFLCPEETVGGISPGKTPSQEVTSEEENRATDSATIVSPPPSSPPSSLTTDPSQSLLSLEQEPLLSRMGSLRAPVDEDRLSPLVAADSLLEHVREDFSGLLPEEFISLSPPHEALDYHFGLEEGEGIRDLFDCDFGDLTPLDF
UniProt P28370, whole entry: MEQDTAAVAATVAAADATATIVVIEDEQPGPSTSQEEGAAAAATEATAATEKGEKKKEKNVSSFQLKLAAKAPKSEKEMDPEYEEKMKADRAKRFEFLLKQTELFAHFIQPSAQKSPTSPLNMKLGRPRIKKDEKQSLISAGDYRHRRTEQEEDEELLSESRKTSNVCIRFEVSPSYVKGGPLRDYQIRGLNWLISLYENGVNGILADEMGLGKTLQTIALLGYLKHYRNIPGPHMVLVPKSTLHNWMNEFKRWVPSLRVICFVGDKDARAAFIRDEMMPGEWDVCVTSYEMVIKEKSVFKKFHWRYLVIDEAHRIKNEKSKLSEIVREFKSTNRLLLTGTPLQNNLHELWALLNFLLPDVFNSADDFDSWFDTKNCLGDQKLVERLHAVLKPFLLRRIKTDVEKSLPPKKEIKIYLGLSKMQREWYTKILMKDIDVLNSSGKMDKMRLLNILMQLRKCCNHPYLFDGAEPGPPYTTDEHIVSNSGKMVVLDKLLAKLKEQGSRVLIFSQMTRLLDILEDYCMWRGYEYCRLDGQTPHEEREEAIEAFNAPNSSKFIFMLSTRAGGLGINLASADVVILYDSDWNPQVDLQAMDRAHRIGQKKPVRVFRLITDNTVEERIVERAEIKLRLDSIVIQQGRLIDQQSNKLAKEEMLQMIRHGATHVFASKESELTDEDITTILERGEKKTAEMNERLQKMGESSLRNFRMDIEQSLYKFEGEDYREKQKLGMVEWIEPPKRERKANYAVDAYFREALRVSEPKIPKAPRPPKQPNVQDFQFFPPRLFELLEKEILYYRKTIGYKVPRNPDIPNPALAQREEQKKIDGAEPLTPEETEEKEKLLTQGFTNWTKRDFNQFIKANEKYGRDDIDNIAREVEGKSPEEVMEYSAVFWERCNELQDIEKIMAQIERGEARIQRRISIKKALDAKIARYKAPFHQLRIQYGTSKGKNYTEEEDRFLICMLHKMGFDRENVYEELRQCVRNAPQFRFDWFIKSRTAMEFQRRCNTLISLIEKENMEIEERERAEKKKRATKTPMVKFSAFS
UniProt O60264, whole entry: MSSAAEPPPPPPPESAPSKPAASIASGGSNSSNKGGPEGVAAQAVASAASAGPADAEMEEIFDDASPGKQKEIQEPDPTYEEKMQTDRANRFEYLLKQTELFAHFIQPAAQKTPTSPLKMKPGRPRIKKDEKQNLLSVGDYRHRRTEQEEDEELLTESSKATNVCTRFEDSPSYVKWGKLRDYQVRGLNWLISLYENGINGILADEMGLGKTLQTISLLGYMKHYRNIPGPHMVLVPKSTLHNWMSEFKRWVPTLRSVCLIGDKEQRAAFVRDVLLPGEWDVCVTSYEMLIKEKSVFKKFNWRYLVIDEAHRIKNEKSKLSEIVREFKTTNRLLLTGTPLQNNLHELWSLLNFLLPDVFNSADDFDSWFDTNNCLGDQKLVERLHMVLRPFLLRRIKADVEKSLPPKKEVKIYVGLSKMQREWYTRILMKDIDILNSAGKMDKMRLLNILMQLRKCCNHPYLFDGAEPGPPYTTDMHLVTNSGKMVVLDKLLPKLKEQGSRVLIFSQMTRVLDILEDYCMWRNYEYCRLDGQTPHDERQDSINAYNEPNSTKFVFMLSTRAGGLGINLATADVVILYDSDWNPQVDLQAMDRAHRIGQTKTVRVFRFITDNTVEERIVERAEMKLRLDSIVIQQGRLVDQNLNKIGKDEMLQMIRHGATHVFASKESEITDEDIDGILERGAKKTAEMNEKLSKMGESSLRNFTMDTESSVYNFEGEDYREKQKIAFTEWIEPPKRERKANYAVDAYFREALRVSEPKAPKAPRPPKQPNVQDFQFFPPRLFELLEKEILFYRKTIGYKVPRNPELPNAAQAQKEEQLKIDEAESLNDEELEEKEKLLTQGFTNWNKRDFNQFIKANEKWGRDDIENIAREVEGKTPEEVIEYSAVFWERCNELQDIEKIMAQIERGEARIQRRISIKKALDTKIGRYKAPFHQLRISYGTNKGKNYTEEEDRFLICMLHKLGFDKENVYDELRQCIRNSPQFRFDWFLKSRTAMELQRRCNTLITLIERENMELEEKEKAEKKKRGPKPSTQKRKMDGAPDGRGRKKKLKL
UniProt Q9NRL2, whole entry: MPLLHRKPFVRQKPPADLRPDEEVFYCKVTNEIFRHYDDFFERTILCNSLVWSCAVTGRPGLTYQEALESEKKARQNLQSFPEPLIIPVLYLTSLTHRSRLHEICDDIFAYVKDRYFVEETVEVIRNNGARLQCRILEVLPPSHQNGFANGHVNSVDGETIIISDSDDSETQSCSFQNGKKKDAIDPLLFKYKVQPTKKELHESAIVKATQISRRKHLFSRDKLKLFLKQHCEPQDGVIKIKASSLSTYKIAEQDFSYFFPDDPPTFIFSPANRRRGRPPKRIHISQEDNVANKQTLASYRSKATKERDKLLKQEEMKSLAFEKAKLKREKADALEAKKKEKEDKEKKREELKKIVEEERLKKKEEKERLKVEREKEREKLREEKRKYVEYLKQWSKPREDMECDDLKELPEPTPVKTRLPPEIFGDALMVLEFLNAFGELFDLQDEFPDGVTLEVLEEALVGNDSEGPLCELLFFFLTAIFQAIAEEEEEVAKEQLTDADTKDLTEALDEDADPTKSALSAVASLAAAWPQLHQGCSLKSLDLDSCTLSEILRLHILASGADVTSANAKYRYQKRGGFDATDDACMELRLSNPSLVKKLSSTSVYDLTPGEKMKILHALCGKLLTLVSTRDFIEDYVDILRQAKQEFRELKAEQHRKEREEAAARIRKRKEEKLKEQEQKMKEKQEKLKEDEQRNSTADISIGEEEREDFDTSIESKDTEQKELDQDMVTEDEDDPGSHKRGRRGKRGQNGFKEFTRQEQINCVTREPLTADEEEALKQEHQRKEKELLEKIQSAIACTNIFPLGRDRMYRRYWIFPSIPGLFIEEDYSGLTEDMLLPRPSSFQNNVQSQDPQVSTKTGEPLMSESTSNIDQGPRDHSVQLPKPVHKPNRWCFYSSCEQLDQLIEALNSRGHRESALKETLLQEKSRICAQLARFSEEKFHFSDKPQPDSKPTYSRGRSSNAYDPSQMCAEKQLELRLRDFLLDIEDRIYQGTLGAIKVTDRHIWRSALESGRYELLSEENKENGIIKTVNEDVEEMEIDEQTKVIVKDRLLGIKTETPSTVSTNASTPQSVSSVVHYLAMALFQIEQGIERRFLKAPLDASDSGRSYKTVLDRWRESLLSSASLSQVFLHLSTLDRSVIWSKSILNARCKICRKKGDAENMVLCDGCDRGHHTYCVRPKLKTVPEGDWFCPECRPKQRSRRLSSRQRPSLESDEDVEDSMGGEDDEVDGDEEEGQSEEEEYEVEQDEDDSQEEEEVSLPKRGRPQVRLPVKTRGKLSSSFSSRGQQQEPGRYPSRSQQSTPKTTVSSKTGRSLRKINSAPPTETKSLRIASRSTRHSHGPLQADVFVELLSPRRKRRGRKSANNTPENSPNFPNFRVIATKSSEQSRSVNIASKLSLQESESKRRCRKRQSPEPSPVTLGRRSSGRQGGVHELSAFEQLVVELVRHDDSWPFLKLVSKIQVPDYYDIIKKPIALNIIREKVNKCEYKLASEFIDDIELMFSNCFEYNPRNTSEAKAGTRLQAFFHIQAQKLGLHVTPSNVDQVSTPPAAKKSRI

Experiments:
Experiment in all cases: co-IP
[1] = biological target: HA-E2F1 (E2F transcription factor 1) (UniProt Q01094)
SMARCA1 = SMARCA1 (UniProt P28370)
SMARCA5-eGFP = SMARCA5-eGFP (UniProt O60264)
[2] = biological target: BAZ1A-eGFP (Bromodomain Adjacent to Zinc Finger Domain 1A) (UniProt Q9NRL2)
[3] = biological target: E2F1, endogenous (LN229) (human (endogenous in LN229)) (UniProt Q01094)

Row | binding [1] | binding (SMARCA1) | binding (SMARCA5-eGFP) | binding [2] | binding [3] | Substance
1 | binds | binds | binds |  |  | BAZ1A-eGFP (Bromodomain Adjacent to Zinc Finger Domain 1A) (from UniProt Q9NRL2 1-1556)
2 | binds |  |  | binds |  | SMARCA5 (from UniProt O60264 1-1052)
3 |  |  |  |  | binds | BAZ1A, endogenous (LN229) (from UniProt Q9NRL2 1-1556)
